In publication PMC4887895 one finds binding data, which are given here for one molecule.

These are yes or no findings as the source states them, for the method shown. In cells and extracts the contact can be indirect. A result given as binding can be weak or reduced; the word gives no strength.

This assay deals with VN155-UNC-76 (C. elegans). Description: split reporter; Venus BiFC of VC155-UNC-64 and VN155-UNC-76 in neurons of live transgenic C. elegans (wild type, par-1 and unc-18 mutants), spinning disk confocal imaging.

B1: VC155-UNC-64 (protein, UniProt O16000 1-291)
chain: MTKDRLSALKAAQSEDEQDDDMHMDTGNAQYMEEFFEQVEEIRGSVDIIANNVEEVKKKHSAILSNPVNDQKTKEELDELMAVIKRAANKVRGKLKLIENAIDHDEQGAGNADLRIRKTQHSTLSRRFVEVMTDYNKTQTDYRERCKGRIQRQLDIAGKQVGDEDLEEMIESGNPGVFTQGIITDTQQAKQTLADIEARHNDIMKLESSIRELHDMFMDMAMLVESQGEMVDRIEYNVEHAKEFVDRAVADTKKAVQYQSKARRKKICILVTGVILITGLIIFILFYAKVL
Turning to B1, the binding entry is “binds”.
